Experimental data published in PubChem BioAssay AID1671190 (National Center for Advancing Translational Sciences (NCATS), 2021).
The campaign covered roughly 580,000 compounds. About 6,100 (1.1%) were called active. Inconclusive means that the source gave no clear call. Such entries were picked first, then a sample of the others. The call rests on the fitted dose curve; in most records, active means well fitted inhibition curve with a large enough effect; inconclusive means small, poorly fitted or top-dose-only effect, or another doubt; inactive means no such curve, though single readings can be large or run the other way. Potencies of inconclusive entries are doubtful fits and often do not repeat.

The chains behind the UniProt entries cited, without tags or fusion partners. Where a name states a change or a piece, a line headed by the entry shows the natural chain unless it says otherwise.
UniProt P18054: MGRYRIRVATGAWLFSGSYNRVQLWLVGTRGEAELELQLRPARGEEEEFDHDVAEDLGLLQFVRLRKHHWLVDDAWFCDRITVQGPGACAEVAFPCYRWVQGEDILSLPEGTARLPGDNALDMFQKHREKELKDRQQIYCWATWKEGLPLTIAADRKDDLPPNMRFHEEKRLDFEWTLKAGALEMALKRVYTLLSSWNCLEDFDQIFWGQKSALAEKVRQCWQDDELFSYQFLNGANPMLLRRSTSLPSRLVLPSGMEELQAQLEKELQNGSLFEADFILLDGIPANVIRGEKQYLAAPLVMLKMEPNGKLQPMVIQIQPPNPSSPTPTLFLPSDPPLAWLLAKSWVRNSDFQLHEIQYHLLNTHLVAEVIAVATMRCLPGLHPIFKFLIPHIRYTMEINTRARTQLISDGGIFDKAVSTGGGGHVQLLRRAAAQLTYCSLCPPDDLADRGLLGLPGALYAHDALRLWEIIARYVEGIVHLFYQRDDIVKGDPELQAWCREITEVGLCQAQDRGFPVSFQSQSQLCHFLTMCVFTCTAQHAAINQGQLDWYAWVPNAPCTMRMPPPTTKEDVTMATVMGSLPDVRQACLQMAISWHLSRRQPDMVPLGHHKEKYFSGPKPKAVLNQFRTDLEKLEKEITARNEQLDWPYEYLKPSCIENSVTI

The compounds below were run against Polyunsaturated fatty acid lipoxygenase ALOX12 (Homo sapiens) (UniProt P18054) (assay: Primary qHTS assay for inhibitors of human arachidonate 12S-lipoxygenase (ALOX12): Round 2). Conditions: purified 12hLO, xylenol orange hydroperoxide absorbance; activity change, negative = inhibition: at 108 µM (top of the series) unless noted.
How it was run: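 Purified human 12hLO at 150 nM in 25 mM Hepes, 0.01% Triton X-100, pH 7.0, preincubated 15 min at room temperature with compound. Reaction started with 40 uM arachidonic acid, 30 min at room temperature. Hydroperoxide measured by Fe-xylenol orange, 573/405 nm absorbance ratio.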
On the % scale 0 is the no-effect control and ±100 the full control effect; potency means the concentration at half of the fitted maximal effect.

How did the Potency turn out when Cc1ccc(S(=O)(=O)Nc2cccc(S(=O)(=O)Nc3ccccc3C(=O)O)c2)c(C)c1 was run?
The Potency was inconclusive: 50.1 µM [inhibitor, partial curve, poor fit].

With c1ccc(-n2cnnc2SCc2nc3ccccc3s2)cc1 as the compound, how does the “activity change, negative = inhibition” value read?
The value was inactive: 0%.

How did the Potency turn out when OC1c2cc(Cl)ccc2-c2c(Cl)cc(Cl)cc21 (stereo not drawn) was run?
The Potency was inconclusive: 31.6 µM [inhibitor, partial curve, poor fit].

How did the “activity change, negative = inhibition” value turn out when CSc1cc(N2CCOCC2)nc(-c2ccccc2Cl)n1 was run?
Its value is inactive: -8.19%.

For CCOC(=O)C1CCN(Cc2c(O)ccc3ccccc23)CC1, which Potency is on record?
The Potency was inconclusive: 28.2 µM [inhibitor, partial curve, poor fit].

With Cc1ccc(S(=O)(=O)Nc2nc3ccccc3s2)cc1 as the compound, how does the Potency read?
Its Potency is inconclusive: 50.1 µM [inhibitor, partial curve, poor fit].

How did the “activity change, negative = inhibition” value turn out when CC(C)NC(=O)COC(=O)c1csc(NCc2ccccc2)n1 was run?
Its value is inactive: -22.5%.

Which Potency does the source give for Cc1cnc(NC(=O)C(C)N2CCN(C)CC2)s1 (stereo not drawn) here?
Its Potency is active: 2.51 µM.

CC(=O)Nc1ccc(NCc2c(C#N)c3ccccc3n2C)cc1 was tested. Which Potency did it give?
The Potency was inconclusive: 44.7 µM [inhibitor, single point].

C=CCC1(CO)CCCN(CCOc2ccc(C)cc2Cl)C1 (stereo not drawn) was tested. Which “activity change, negative = inhibition” value did it give?
The value was inactive: 15%.

Nc1c(C(=O)NCc2ccc(F)cc2)c2nc3ccccc3nc2n1CCCN1CCOCC1 was tested. Which Potency did it give?
The Potency was inconclusive: 224 µM [inhibitor, partial curve, poor fit].

With CCOc1ccc(S(=O)(=O)N(CC)CC)cc1N as the compound, how does the “activity change, negative = inhibition” value read?
Its value is inactive: -7.03%.

Which Potency does the source give for CCCCn1c(=O)nc2n(-c3ccccc3C)c3ccccc3cc-2c1=O here?
Its Potency is inconclusive: 126 µM [inhibitor, partial curve, poor fit].

How did the Potency turn out when C/C(=N\Nc1nc(C(C)(C)C)cs1)c1ccccc1 was run?
The Potency was inconclusive: 79.4 µM [inhibitor, single point].

How did the Potency turn out when CCCN(C(=O)COC(=O)CCOc1ccc(C)cc1)c1c(N)n(Cc2ccccc2)c(=O)[nH]c1=O was run?
Its Potency is inconclusive: 126 µM [inhibitor, partial curve, poor fit].

For N#C/C(=C\c1cc(Br)c(O)c(Br)c1)c1nc2ccccc2[nH]1, which Potency is on record?
Its Potency is inconclusive: 158 µM [inhibitor, partial curve, poor fit].

Cc1ccc(-n2cc(CN3CCCN(C=O)CC3)c(-c3ccc(F)cc3)n2)cc1 was tested. Which Potency did it give?
Its Potency is inconclusive: 100 µM [inhibitor, partial curve, poor fit].

Which Potency does the source give for O=C(Nc1cccc2ncccc12)c1cccc([N+](=O)[O-])c1 here?
Its Potency is inconclusive: 0.251 µM [inhibitor, full curve, poor fit].

Cc1ccccc1OCc1nc(-c2ccccc2OCC(=O)N2CCCC(C)C2)no1 (stereo not drawn) was tested. Which Potency did it give?
The Potency was inconclusive: 44.7 µM [inhibitor, partial curve, poor fit].

Cc1ccccc1CN1CCc2nc(N3CCN(c4ccccn4)CC3)ncc2C1 was tested. Which “activity change, negative = inhibition” value did it give?
The value was inactive: -26.4%.

Which Potency does the source give for O=C(Nc1cc(Cl)ccc1O)C1CC(c2c(F)cccc2Cl)=NO1 (stereo not drawn) here?
Its Potency is inconclusive: 39.8 µM [inhibitor, partial curve, poor fit].

O=C(CSc1nc2ccc(NC(=O)c3ccccc3C(=O)O)cc2s1)Nc1ccc(F)c([N+](=O)[O-])c1 was tested. Which Potency did it give?
Its Potency is inconclusive: 50.1 µM [inhibitor, partial curve, poor fit].

Which “activity change, negative = inhibition” value does the source give for CCCCCCNC(=O)C(C#N)c1nc2ccccc2nc1N1CCCC1 (stereo not drawn) here?
The value was inactive: 141%.

For CN(C)Cc1ccc(CNC(=O)CCc2ncc(-c3ccc(F)cc3)o2)cc1, which Potency is on record?
Its Potency is inconclusive: 44.7 µM [inhibitor, partial curve].

For COc1ccc(-c2ccc(CCC(=O)O)o2)cc1, which Potency is on record?
Its Potency is inconclusive: 28.2 µM [inhibitor, partial curve, poor fit].

For O=C(Nc1ccc(Br)cc1)N1CCC(CN2CCCC2)CC1, which Potency is on record?
The Potency was inconclusive: 112 µM [inhibitor, single point].

How did the Potency turn out when S=C(NCCc1ccccc1)c1ccccc1 was run?
The Potency was inconclusive: 28.2 µM [inhibitor, single point].

How did the Potency turn out when Cn1cnnc1CC1CCNCC1 was run?
The Potency was inconclusive: 22.4 µM [inhibitor, single point].

How did the “activity change, negative = inhibition” value turn out when CN(C)CCNC(=O)C[C@@H]1O[C@H](CNS(=O)(=O)c2ccc(Cl)cc2)[C@@H](O)[C@H]1O was run?
Its value is inactive: 44.4%.

For CC(=O)NC1CC2(CCN(C(=O)Cc3cnc[nH]3)CC2)c2ccccc21 (stereo not drawn), which Potency is on record?
The Potency was inconclusive: 3.55 µM [inhibitor, full curve].

How did the Potency turn out when Cc1cccc(C)c1OCc1cc(C(=O)N2CCC(c3ccccc3)CC2)no1 was run?
Its Potency is inconclusive: 39.8 µM [inhibitor, partial curve, poor fit].

CC(=O)c1c(C)[nH]c(C(=O)OCC(=O)c2c(N)n(CC(C)C)c(=O)n(C)c2=O)c1C was tested. Which “activity change, negative = inhibition” value did it give?
Its value is inactive: 1.73%.

For COc1ccc(N2CCN(CCCNC(=O)c3ccc4nc(CCc5ccccc5)oc4c3)CC2)cc1, which “activity change, negative = inhibition” value is on record?
Its value is inactive: -28.8%.

For O=C(N/N=C/c1ccc([N+](=O)[O-])s1)C1CCCCC1, which “activity change, negative = inhibition” value is on record?
Its value is inactive: -5.53%.

Which “activity change, negative = inhibition” value does the source give for Cc1ccc(C(=O)CSc2ncc(C(F)(F)F)cc2Cl)cc1 here?
The value was inactive: 10.4%.

O=C(c1ccc2c(c1)OCCO2)N1CCN(Cc2ccccc2)CC1 was tested. Which Potency did it give?
Its Potency is inconclusive: 22.4 µM [inhibitor, full curve, poor fit].

Which Potency does the source give for Cc1nc(C(=O)NC2CCOCC2)sc1C1(C)CC(c2cccc([N+](=O)[O-])c2)=NO1 (stereo not drawn) here?
Its Potency is inconclusive: 44.7 µM [inhibitor, full curve, poor fit].

For Cc1ccc2[nH]c(=O)cc(C(=O)OC(C)C)c2c1, which Potency is on record?
The Potency was inconclusive: 44.7 µM [inhibitor, partial curve, poor fit].

Which Potency does the source give for Cc1c(Cl)cccc1NC(=O)c1ccc(NC(=O)N2CCSc3ncccc32)cc1 here?
The Potency was inconclusive: 39.8 µM [inhibitor, partial curve, poor fit].

Cc1ccccc1C(C)NC(=O)Cn1cnc2c1c(=O)n(C)c(=O)n2C (stereo not drawn) was tested. Which Potency did it give?
The Potency was inconclusive: 89.1 µM [inhibitor, single point].

With Cc1cc(=O)oc2cc(OCC(=O)NCc3ccccc3)ccc12 as the compound, how does the Potency read?
The Potency was inconclusive: 50.1 µM [inhibitor, single point].

How did the “activity change, negative = inhibition” value turn out when CSc1ccccc1C(=O)Nc1cc(C)ccc1C was run?
The value was inactive: -4.95%.

Which “activity change, negative = inhibition” value does the source give for O=C1c2ccccc2C(=O)N1CCCCN(C(=O)c1ccco1)c1ccc(Cl)cc1 here?
The value was inactive: 7.74%.

With COc1ccc(NCc2cccn2-c2nnc(N3CCC(C)CC3)s2)c(OC)c1 as the compound, how does the “activity change, negative = inhibition” value read?
The value was inactive: -19.8%.

Which Potency does the source give for NNc1nc2ccccc2c(=O)n1Cc1ccccc1 here?
Its Potency is inconclusive: 6.31 µM [inhibitor, full curve, poor fit].

For O=C(c1ccc(Br)cc1)c1cn[nH]c1-c1ccccc1O, which Potency is on record?
Its Potency is inconclusive: 56.2 µM [inhibitor, partial curve, poor fit].

With COc1ccc2nc(SCC(=O)Nc3nc(C)cs3)[nH]c2c1 as the compound, how does the Potency read?
The Potency was inconclusive: 31.6 µM [inhibitor, partial curve, poor fit].

For CCN(CCC(=O)O)c1ccccc1, which Potency is on record?
Its Potency is inconclusive: 35.5 µM [inhibitor, partial curve, poor fit].

Which “activity change, negative = inhibition” value does the source give for Cn1nc(C(=O)OC/C(O)=C(/C#N)c2nc3ccccc3[nH]2)c2ccccc2c1=O here?
The value was inactive: -0.889%.

Cc1ccc(Cl)cc1OCc1n[nH]c(=S)n1C was tested. Which Potency did it give?
The Potency was inconclusive: 0.631 µM [inhibitor, full curve, poor fit].

O=C(CSc1n[nH]c(-c2ccc(Br)cc2)n1)c1cc(F)ccc1F was tested. Which Potency did it give?
The Potency was active: 31.6 µM.

CCCCOc1ccc(/C=C(/C#N)c2nc3ccccc3[nH]2)cc1 was tested. Which “activity change, negative = inhibition” value did it give?
The value was inactive: -4.61%.

For CCOc1ccc(CCN2C(=S)N([C@@H](CC(C)C)CN3CCCC3CN3C(=S)NC[C@@H]3Cc3ccc(O)cc3)C[C@@H]2Cc2ccccc2)cc1 (stereo partly drawn), which Potency is on record?
Its Potency is inconclusive: 39.8 µM [inhibitor, partial curve, poor fit].

COc1ccc2[nH]cc(CCNc3cc(-c4ccc5c(c4)OCO5)ncn3)c2c1 was tested. Which Potency did it give?
Its Potency is inconclusive: 50.1 µM [inhibitor, partial curve, poor fit].

C=C(C)CNC(=S)N/N=C/c1cccc(C(F)(F)F)c1 was tested. Which “activity change, negative = inhibition” value did it give?
Its value is inactive: 26.1%.

How did the Potency turn out when COc1ccc2[nH]c(N=Nc3ccccc3C)c(O)c2c1 was run?
The Potency was inconclusive: 35.5 µM [inhibitor, partial curve].

For COc1ccc(C)cc1NC(=O)c1sc2ncnc(N3CCN(c4ccccn4)CC3)c2c1C, which “activity change, negative = inhibition” value is on record?
Its value is inactive: -0.285%.

Which Potency does the source give for COc1cccc(/C=C(/C#N)C(=O)c2c[nH]c3cc(F)ccc23)c1 here?
Its Potency is inconclusive: 63.1 µM [inhibitor, partial curve, poor fit].

With COc1ccc(-c2csc(Cc3nnc4n3CCCCC4)n2)cc1OC as the compound, how does the Potency read?
The Potency was inconclusive: 39.8 µM [inhibitor, partial curve, poor fit].

Which Potency does the source give for CCCCNC(=O)C[C@@H]1C[C@@]2(C(=O)OC)CCCCC=C2N(Cc2ccccc2)C1=O here?
Its Potency is inconclusive: 0.251 µM [inhibitor, full curve, poor fit].

Which Potency does the source give for Cc1cccc(/C=N/NC(=O)c2ccc(NC(=O)c3cccc(Cl)c3)cc2)n1 here?
The Potency was inconclusive: 100 µM [inhibitor, single point].

CCc1cccc(NC(=O)CSc2nccn2C)c1 was tested. Which Potency did it give?
The Potency was inconclusive: 79.4 µM [inhibitor, partial curve, poor fit].

With NC(=O)CSc1nnc(CNC(=O)c2ccc(Cl)cc2)n1-c1ccccc1 as the compound, how does the “activity change, negative = inhibition” value read?
Its value is inactive: 0.117%.

For CSc1ccc(CN2CCCN(C)CC2)cc1, which Potency is on record?
Its Potency is inconclusive: 0.355 µM [inhibitor, full curve, poor fit].

Cc1ccc(NC(=S)N2CCC(NC(=O)c3cccc(F)c3)CC2)cc1 was tested. Which Potency did it give?
The Potency was inconclusive: 3.98 µM [inhibitor, full curve, poor fit].

Which “activity change, negative = inhibition” value does the source give for Cc1ccc(Cn2c(CCCO)nc3ccccc32)cc1 here?
The value was inactive: -12.4%.

Which Potency does the source give for O=C(c1ccccn1)N1CCC2(CCCN(Cc3ccc(F)cc3)C2=O)C1 (stereo not drawn) here?
The Potency was inconclusive: 100 µM [inhibitor, partial curve, poor fit].

Which Potency does the source give for CCCc1c(-c2ccccc2Br)ncn1Cc1ccccc1OC here?
The Potency was inconclusive: 39.8 µM [inhibitor, partial curve, poor fit].
